{"source": "paper PMC6366974", "about": "“The curcumin analog EF24 is a novel senolytic agent” (Aging (Albany NY), 2019)", "data": [{"tested_on": "WI-38 IR-induced senescent cells (IR-SCs)", "test": "Cell viability assay (flow cytometry, PI)", "type": "cell-based, human", "details": "WI-38 NCs vs IR-SCs, Table 1", "protocol": "Human WI-38 fibroblasts (WI-38, Cat. No. CCL-75), human IMR-90 fibroblasts (IMR-90, Cat. No. CCL-186), human umbilical vein endothelial cells (HUVEC, Cat. No. CRL-1730), human renal epithelial cells (HREC, Cat. No. PCS-400-012) and human pre-adipocytes (Cat. No. PCS-210-010) were newly purchased from the American Type Culture Collection (ATCC, Manassas, VA, USA). WI-38 and IMR-90 cells were cultured in complete Dulbecco’s modified Eagle medium (DMEM, Cat. No. 12430054, Thermo Fisher Scientific, Waltham, MA, USA) supplemented with 10% heat-inactivated fetal bovine serum (FBS, Cat. No. S11150H, Atlanta Biologicals, Flowery Branch, GA, USA), 100 U/mL penicillin and 100 µg/mL streptomycin (Pen Strep, Cat. No. 15140122, Thermo Fisher Scientific, Waltham, MA, USA) in a humidified incubator at 37°C and 5% CO2. HUVEC were cultured in EGM-2 BulletKit (Cat. No. CC-3162, Lonza, Basel, Switzerland) containing basal medium supplemented with growth factors, cytokines and other supplements according to the manufacturer’s protocol. HREC were cultured in renal epithelial cell basal medium (Cat. No. PCS-400-030, ATCC, Manassas, VA, USA) supplemented with renal epithelial cell growth kit (Cat. No. PCS400040, ATCC, Manassas, VA, USA). Human pre-adipocytes were cultured in fibroblast basal medium (Cat. No. PCS-201-030, ATCC, Manassas, VA, USA) supplemented with fibroblast growth kit-low serum (Cat. No. PCS201041, ATCC, Manassas, VA, USA). EF24 (Cat. No. E8409) and HO-3867 (Cat. No. S7501) were purchased from Sigma-Aldrich (St. Louis, MO, USA) and Selleckchem (Houston, TX, USA), respectively. DIMC (Cat. No. 10009986) and 2-HBA (Cat. No. 11879) were both purchased from Cayman Chemical (Ann Arbor, MI, USA).\nThree different methods were used for the induction of SCs, including replicative exhaustion, ionizing radiation and ectopic Ras expression as previously described. […]\nNumber of viable cells were quantified using flow cytometry as previously described with slight modifications. […] Following dissociation with 0.25% Trypsin-EDTA (Cat. No. 25200056, Thermo Fisher Scientific, Waltham, MA, USA) at 37°C for 5 min, the cells were harvested in 100 µl pre-cooled phosphate buffered saline (PBS, Cat. No. 20012027, Thermo Fisher Scientific, Waltham, MA, USA) containing 2% FBS and 100 ng/mL propidium iodide (PI, P4170, Sigma-Aldrich, St. Louis, MO, USA) and analyzed using flow cytometry (LSR II, BD Biosciences, San Jose, CA, USA). Percentage of viable cells were determined by counting the number of PI negative cells (viable cells) and then calculated as a ratio of control cells treated with vehicle. […]", "values": [{"smiles": "O=C(C=Cc1ccccc1O)C=Cc1ccccc1O", "note": "[2-HBA, Bis(2-hydroxybenzylidene)acetone]", "EC50 value ratio NCs/SCs": 2.47}, {"smiles": "O=C1/C(=C/c2ccccc2F)CNC/C1=C\\c1ccccc1F", "note": "[EF24]", "EC50 value ratio NCs/SCs": 2.9}, {"smiles": "COc1ccc(/C=C/C(=O)CC(=O)/C=C/c2ccc(OC)c(OC)c2)cc1OC", "note": "[DIMC, dimethoxycurcumin]", "EC50 value ratio NCs/SCs": 1.56}, {"smiles": "CC1(C)C=C(CN2C/C(=C\\c3ccc(F)cc3)C(=O)/C(=C/c3ccc(F)cc3)C2)C(C)(C)N1O", "note": "[HO-3867]", "EC50 value ratio NCs/SCs": 2.16}]}]}
